This is one part of the list. Single values are uncertain here, since repeats match poorly.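 Researchers measured free-swimming zebrafish larvae's O-bend response probability to dark flashes (naive: first five; training: remaining flashes of four 60-flash blocks; test: later 60-flash block) and OMR turning toward alternating leftward/rightward LED motion. Six treated larvae were compared to sixty 0.1% DMSO controls, with |SSMD|≥2 marking a hit.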
Tested on: Danio rerio larvae (5 dpf, TLF)
Assay: Prob-Train (SSMD vs DMSO vehicle); higher = higher than vehicle (e.g. higher dark-flash O-bend response probability, or better optomotor performance)
Conditions: 10 µM; pre-incubation: 30-90 min

Compound	Prob-Train
CC(C)(Sc1cc(C(C)(C)C)c(O)c(C(C)(C)C)c1)Sc1cc(C(C)(C)C)c(O)c(C(C)(C)C)c1 [Probucol]	0.25
NS(=O)(=O)C#Cc1ccccc1 [Pifithrin-Î¼]	-0.924
Cc1cc(Cl)ccc1OCCCC(=O)NO [Droxinostat]	-0.306
CS(=O)(=O)CCNCc1ccc(-c2ccc3ncnc(Nc4ccc(OCc5cccc(F)c5)c(Cl)c4)c3c2)o1 [Lapatinib]	-0.136
O=C(Nc1c(Cl)cncc1Cl)c1ccc(OC(F)F)c(OCC2CC2)c1 [Roflumilast]	-1.45
C#C[C@@]1(O)CC[C@H]2[C@@H]3CCC4=CC(=O)CC[C@@H]4[C@@H]3CC[C@@]21CC [Levonorgestrel]	-0.979
COc1cc2c(cc1OC)-c1cc3ccc(OC)c(OC)c3c[n+]1CC2.[Cl-] [Palmatine chloride]	0.391
CC1(C)[C@@H](O[C@H]2O[C@H](C(=O)O)[C@@H](O)[C@H](O)[C@@H]2O[C@@H]2O[C@H](C(=O)O)[C@@H](O)[C@H](O)[C@@H]2O)CC[C@@]2(C)[C@H]1CC[C@]1(C)[C@H]2C(=O)C=C2[C@H]3C[C@@](C)(C(=O)O)CC[C@]3(C)CC[C@]21C [Glycyrrhizic Acid]	0.000763
CN1CCc2c(c3ccccc3n2Cc2ccc(C(=O)NO)cc2)C1.Cl [Tubastatin A HCl]	0.402

3 structures from above, arranged by length of the SMILES, largest number first.
Compound	Prob-Train
CC(C)(Sc1cc(C(C)(C)C)c(O)c(C(C)(C)C)c1)Sc1cc(C(C)(C)C)c(O)c(C(C)(C)C)c1 [Probucol]	0.25
C#C[C@@]1(O)CC[C@H]2[C@@H]3CCC4=CC(=O)CC[C@@H]4[C@@H]3CC[C@@]21CC [Levonorgestrel]	-0.979
NS(=O)(=O)C#Cc1ccccc1 [Pifithrin-Î¼]	-0.924

Reference: the supplement of paper PMC10727501
